Results are given in words; binding and its absence hold for the method and conditions named. In cells and extracts the contact can be indirect. Some binding calls cover weakened binding; strength is not graded here. Blank lines part the entries; values can stand above or below the molecule they belong to.
Molecular target: RING1 (the product of Sex combs extra (Sce) gene) (Drosophila melanogaster (endogenous in embryos)) (UniProt Q9VB08)
Assay: co-IP

By UniProt entry, the sequences of proteins in these tests, tags left out.
UniProt Q9VB08: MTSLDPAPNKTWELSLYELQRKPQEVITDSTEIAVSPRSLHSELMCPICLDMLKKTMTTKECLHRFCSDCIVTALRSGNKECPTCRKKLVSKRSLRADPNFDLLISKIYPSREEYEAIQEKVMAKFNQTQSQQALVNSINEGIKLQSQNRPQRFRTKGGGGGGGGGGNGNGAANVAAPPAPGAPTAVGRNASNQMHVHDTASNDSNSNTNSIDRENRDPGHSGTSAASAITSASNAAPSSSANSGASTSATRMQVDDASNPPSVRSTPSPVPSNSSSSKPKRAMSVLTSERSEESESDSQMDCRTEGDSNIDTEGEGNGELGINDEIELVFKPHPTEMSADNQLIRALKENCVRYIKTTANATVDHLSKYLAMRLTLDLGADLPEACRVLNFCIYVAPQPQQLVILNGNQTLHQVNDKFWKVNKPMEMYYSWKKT
UniProt P35820: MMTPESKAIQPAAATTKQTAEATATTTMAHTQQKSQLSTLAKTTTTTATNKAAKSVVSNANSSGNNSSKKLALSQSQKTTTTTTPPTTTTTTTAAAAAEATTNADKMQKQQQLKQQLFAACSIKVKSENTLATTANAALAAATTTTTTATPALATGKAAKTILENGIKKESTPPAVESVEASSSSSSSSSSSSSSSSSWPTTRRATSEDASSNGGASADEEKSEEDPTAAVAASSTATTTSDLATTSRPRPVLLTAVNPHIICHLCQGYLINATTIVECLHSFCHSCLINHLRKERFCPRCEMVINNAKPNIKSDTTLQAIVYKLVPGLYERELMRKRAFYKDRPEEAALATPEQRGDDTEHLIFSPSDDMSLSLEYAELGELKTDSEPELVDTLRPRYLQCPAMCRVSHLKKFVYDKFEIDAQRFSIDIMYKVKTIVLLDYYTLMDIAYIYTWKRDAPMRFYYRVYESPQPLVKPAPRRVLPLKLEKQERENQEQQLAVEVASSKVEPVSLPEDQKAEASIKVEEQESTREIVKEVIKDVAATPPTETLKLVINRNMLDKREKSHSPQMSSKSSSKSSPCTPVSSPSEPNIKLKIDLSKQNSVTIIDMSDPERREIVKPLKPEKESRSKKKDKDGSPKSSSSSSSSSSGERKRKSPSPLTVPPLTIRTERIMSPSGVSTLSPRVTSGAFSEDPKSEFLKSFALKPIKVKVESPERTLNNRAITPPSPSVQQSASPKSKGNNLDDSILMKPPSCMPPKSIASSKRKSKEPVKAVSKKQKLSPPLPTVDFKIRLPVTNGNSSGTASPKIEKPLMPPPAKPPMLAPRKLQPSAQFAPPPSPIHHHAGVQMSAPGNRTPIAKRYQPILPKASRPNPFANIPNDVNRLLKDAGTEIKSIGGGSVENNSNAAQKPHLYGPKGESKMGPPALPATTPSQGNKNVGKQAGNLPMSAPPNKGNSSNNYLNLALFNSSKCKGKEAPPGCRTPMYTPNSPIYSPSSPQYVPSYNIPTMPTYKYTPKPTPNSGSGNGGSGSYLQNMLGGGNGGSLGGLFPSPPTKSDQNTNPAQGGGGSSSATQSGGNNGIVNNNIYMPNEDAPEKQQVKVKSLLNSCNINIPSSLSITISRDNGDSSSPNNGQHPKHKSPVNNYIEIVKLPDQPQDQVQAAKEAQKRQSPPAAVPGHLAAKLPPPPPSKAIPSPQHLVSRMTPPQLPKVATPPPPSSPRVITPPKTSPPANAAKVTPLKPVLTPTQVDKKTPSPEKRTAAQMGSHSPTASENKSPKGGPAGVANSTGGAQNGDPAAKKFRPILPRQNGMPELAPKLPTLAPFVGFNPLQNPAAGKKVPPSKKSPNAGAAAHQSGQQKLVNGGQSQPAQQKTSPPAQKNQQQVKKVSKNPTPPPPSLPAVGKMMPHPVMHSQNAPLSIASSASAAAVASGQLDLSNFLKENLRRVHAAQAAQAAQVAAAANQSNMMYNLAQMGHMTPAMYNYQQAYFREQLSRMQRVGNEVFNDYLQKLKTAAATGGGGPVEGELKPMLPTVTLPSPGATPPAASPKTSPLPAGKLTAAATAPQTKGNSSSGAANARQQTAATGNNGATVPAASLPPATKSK

binding: binds
Molecule: Posterior sex combs (Psc) (from UniProt P35820 1-1601)

binding: binds
B1: Polycomb (Pc) (protein, UniProt P26017 1-390)
chain: MTGRGKGSKGKLGRDNATDDPVDLVYAAEKIIQKRVKKGVVEYRVKWKGWNQRYNTWEPEVNILDRRLIDIYEQTNKSSGTPSKRGIKKKEKEPDPEPESEEDEYTFTENDVDTHQATTSSATHDKESKKEKKHHHHHHHHHHIKSERNSGRRSESPLTHHHHHHHHESKRQRIDHSSSSNSSFTHNSFVPEPDSNSSSSEDQPLIGTKRKAEVLKESGKIGVTIKTSPDGPTIKPQPTQQVTPSQQQPFQDQQQAEKIASEAATQLKSEQQATPLATEAINTTPAESGAEEEEVANEEGNQQAPQVPSENNNIPKPCNNLAINQKQPLTPLSPRALPPRFWLPAKCNISNRVVITDVTVNLETVTIRECKTERGFFRERDMKGDSSPVA

— doi:10.1101/2025.07.18.664654
